In US7495098B2, “Extraction of alkaloids from opium” (Mallinckrodt Inc, priority 2004, dated 2009):

Key:
[1] = pH greater than 6 in the presence of oxygen
[2] = Stability of alkaloids in the acid digest of opium suspension at pH 3.0, room temperature; conditions: pH 3.0, up to 96 hours

Structure (SMILES): CN1CC[C@]23c4c5ccc(O)c4O[C@H]2[C@@H](O)C=C[C@H]3[C@H]1C5 [Morphine, morphine]
- Stability of morphine [1]: very unstable
- Stability (loss of alkaloid) in solution [2]: does not appear to be any significant loss
